Laboratory results: PubChem BioAssay AID330 (DTP/NCI, 2004)
The list does not hold the whole screen: it is rich in T/C values a quarter to a half above the control, in often repeated tests (any T/C) and in doses without a T/C. Further doses and runs are listed elsewhere. T/C: endpoint of the treated group in % of that of the vehicle group. Some entries give survivors of the animals treated and no T/C: the source holds a T/C of zero for them, seemingly a mark for toxic or unscored doses. Some doses without a T/C left all or most animals alive at the check, yet need not have been tolerated: survival well below the control is almost never listed, so the zero probably covers shortened survival too. Survivors were counted at the toxicity check, usually on the fifth day, unless a day is given; later deaths do not show. Schedule codes are those of the source, read here as Q, the interval in days (D) or hours (H), X, the number of doses. Some doses were run more than once; their values stand side by side, smallest first. Some structures stand for samples that the source files as different forms (salt, stereo form or complex); doses refer to the form tested. For survival time, the PubChem record calls one and a half times the control and up active, and a quarter to a half above the control has no call in these data; cut-offs in other NCI protocols can differ. Some T/C values carry the count of animals alive at the toxicity check (mostly the fifth day); where none is given, no animal had died by that day. Counts like (3×) stand for listed records that agree.

System: P388 leukemia ip, CD2F1 mice, survival T/C
Test: NCI In Vivo Anticancer Drug Screen. Data for tumor model P388 Leukemia (intraperitoneal) in CD2F1 (CDF1) mice
Details: T/C endpoint: median survival time, higher T/C = longer survival
[1] = dose: 100.0 mg/kg/injection, schedule: Q01DX009 (ip), vehicle: saline
[2] = dose: 200.0 mg/kg/injection, schedule: Q01DX009 (ip), vehicle: saline
[3] = dose: 200.0 mg/kg/injection, schedule: Q01DX005 (ip), vehicle: Klucel (hydroxypropylcellulose) (HPC)
[4] = dose: 50.0 mg/kg/injection, schedule: Q01DX005 (ip), vehicle: saline with Tween-80
[5] = dose: 100.0 mg/kg/injection, schedule: Q01DX005 (ip), vehicle: saline with Tween-80
[6] = dose: 200.0 mg/kg/injection, schedule: Q01DX005 (ip), vehicle: saline with Tween-80

## CN(C)CCN1C(=O)c2cccc3cc(N)cc(c23)C1=O
dose: 2.0 mg/kg/injection, schedule: Q01DX009 (ip), vehicle: saline with Tween-80
  T/C: 135 % of control
dose: 4.0 mg/kg/injection, schedule: Q01DX009 (ip), vehicle: saline with Tween-80
  T/C: 137 and 142 % of control [5 of 6 alive]
dose: 7.0 mg/kg/injection, schedule: Q01DX009 (ip), vehicle: saline with Tween-80, evaluated on day 30
  T/C: 131 and 134 % of control
dose: 7.0 mg/kg/injection, schedule: Q01DX009 (ip), vehicle: saline with Tween-80, evaluated on day 45
  T/C: 131, 141, 144, 152 % of control
dose: 7.0 mg/kg/injection, schedule: Q01DX009 (ip), vehicle: saline with Tween-80, evaluated on day 60
  T/C: 128, 130, 131, 139, 141, 144 % of control
dose: 8.0 mg/kg/injection, schedule: Q01DX009 (ip), vehicle: saline with Tween-80
  T/C: 144 and 149 % of control [9 of 10 alive]
dose: 11.0 mg/kg/injection, schedule: Q01DX009 (ip), vehicle: saline with Tween-80, evaluated on day 30
  T/C: 151 (2×) and 157 % of control
dose: 11.0 mg/kg/injection, schedule: Q01DX009 (ip), vehicle: saline with Tween-80, evaluated on day 45
  T/C: 146, 163, 166, 177 % of control
dose: 11.0 mg/kg/injection, schedule: Q01DX009 (ip), vehicle: saline with Tween-80, evaluated on day 60
  T/C: 143, 145 (2×), 152, 161, 176 % of control
dose: 16.0 mg/kg/injection, schedule: Q01DX009 (ip), vehicle: saline with Tween-80, evaluated on day 30
  T/C: 132, 177, 183, 186, 188, 199 % of control
dose: 16.0 mg/kg/injection, schedule: Q01DX009 (ip), vehicle: saline with Tween-80, evaluated on day 45
  T/C: 186, 209, 211, 214 % of control
dose: 16.0 mg/kg/injection, schedule: Q01DX009 (ip), vehicle: saline with Tween-80, evaluated on day 60
  T/C: 171, 177, 181, 194, 195, 200 % of control
dose: 24.0 mg/kg/injection, schedule: Q01DX009 (ip), vehicle: saline with Tween-80, evaluated on day 30
  T/C: 114, 128, 242 % of control
dose: 24.0 mg/kg/injection, schedule: Q01DX009 (ip), vehicle: saline with Tween-80, evaluated on day 45
  T/C: 89 [9 of 10 alive], 102, 115, 118 % of control
dose: 24.0 mg/kg/injection, schedule: Q01DX009 (ip), vehicle: saline with Tween-80, evaluated on day 60
  T/C: 118, 147, 224, 226, 235, 247 % of control
dose: 32.0 mg/kg/injection, schedule: Q01DX009 (ip), vehicle: saline with Tween-80
  survivor count: 10 of 10
dose: 32.1 mg/kg/injection, schedule: Q01DX009 (ip), vehicle: saline with Tween-80
  survivor count: 5 of 6 and 6 of 6
dose: 65.0 mg/kg/injection, schedule: Q01DX009 (ip), vehicle: saline with Tween-80
  survivor count: 6 of 6

## O=[N+]([O-])c1c(Sc2ccccc2)ncnc1Sc1ccccc1
[1]
  survivor count: 6 of 6
[2]
  survivor count: 6 of 6

## NC1C[S][Sn][O]C1=O (stereo not drawn)
dose: 400.0 mg/kg/injection, schedule: Q04DX003 (ip), vehicle: saline with Tween-80
  survivor count: 1 of 6

## COc1cccc2c1C(=O)c1c(O)c3c(c(O)c1C2=O)C[C@@](O)(/C(C)=N/NC(=O)c1ccccc1)C[C@@H]3OC1CC(N(C)C)C(O)C(C)O1 (stereo partly drawn)
dose: 0.78 mg/kg/injection, schedule: Q01DX009 (ip), vehicle: water
  T/C: 132 and 146 % of control
dose: 1.56 mg/kg/injection, schedule: Q01DX009 (ip), vehicle: water
  T/C: 134 % of control
dose: 3.13 mg/kg/injection, schedule: Q01DX009 (ip), vehicle: water
  T/C: 145 % of control
dose: 12.5 mg/kg/injection, schedule: Q01DX009 (ip), vehicle: water
  survivor count: 3 of 3 and 6 of 6

## c1ccc2c(c1)CN1CCN=C1N2
[1]
  survivor count: 0 of 6
[2]
  survivor count: 0 of 6

## CCOC(=O)c1cnc(-c2ccccc2)n(-c2ccccc2)c1=O
[3]
  survivor count: 0 of 6

## Nc1nc(=S)c2ncn(C3OC(CO)C(O)C3O)c2[nH]1 (stereo not drawn)
dose: 4.0 mg/kg/injection, schedule: Q01DX010 (ip), vehicle: saline
  T/C: 127 % of control
dose: 16.0 mg/kg/injection, schedule: Q01DX010 (ip), vehicle: saline
  survivor count: 6 of 6
[4]
  T/C: 126 % of control
dose: 200.0 mg/kg/injection, schedule: Q04DX003 (ip), vehicle: saline sonified
  T/C: 136 % of control
dose: 200.0 mg/kg/injection, schedule: Q04DX003 (ip), vehicle: saline with Tween-80
  T/C: 130 % of control
dose: 300.0 mg/kg/injection, schedule: Q04DX003 (ip), vehicle: saline with Tween-80
  T/C: 126 % of control

## CN(/N=C/c1ccc2c(c1)OCO2)c1ccc([N+](=O)[O-])cc1
[3]
  survivor count: 6 of 6

## COc1ccc2c(c1)/C(=C/CCN(C)C)c1ccccc1S2
dose: 33.0 mg/kg/injection, schedule: Q04DX003 (ip), vehicle: saline
  T/C: 130 % of control
dose: 50.0 mg/kg/injection, schedule: Q04DX003 (ip), vehicle: saline
  T/C: 127 and 130 % of control
dose: 75.0 mg/kg/injection, schedule: Q04DX003 (ip), vehicle: saline
  survivor count: 5 of 6

## NOCc1cccc(Cl)c1
dose: 50.0 mg/kg/injection, schedule: Q01DX009 (ip), vehicle: saline with Tween-80
  survivor count: 6 of 6

## OCCN1CCCN(CCCN2c3ccccc3Sc3ccc(C(F)(F)F)cc32)CC1
[4]
  survivor count: 6 of 6
[5]
  survivor count: 1 of 6
[6]
  survivor count: 0 of 6

## CC[Se](CC)CC.CC[Se](CC)CC.C[CH2][Ge]([CH2]C)[O][Ge]([CH2]C)[CH2]C
dose: 25.0 mg/kg/injection, schedule: Q01DX009 (ip), vehicle: saline
  T/C: 126 % of control

## CC(=O)/C(=C\c1ccc(Cl)c(Cl)c1)C(=O)CCN(C)C
dose: 12.5 mg/kg/injection, schedule: Q01DX005 (ip), vehicle: saline with Tween-80
  T/C: 129 % of control
[4]
  T/C: 128 and 130 % of control
[5]
  survivor count: 0 of 5
dose: 100.0 mg/kg/injection, schedule: Q01DX005 (ip), vehicle: saline, evaluated on day 20
  T/C: 133 % of control
dose: 100.0 mg/kg/injection, schedule: Q01DX005 (ip), vehicle: saline, evaluated on day 30
  T/C: 129 % of control
[6]
  survivor count: 0 of 5
dose: 200.0 mg/kg/injection, schedule: Q01DX005 (ip), vehicle: saline
  survivor count: 0 of 6 and 1 of 6

## O=C(Cc1nc2ccccc2nc1CC(=O)c1ccncc1)c1ccncc1
dose: 25.0 mg/kg/injection, schedule: Q01DX005 (ip), vehicle: saline with Tween-80
  survivor count: 6 of 6
[4]
  survivor count: 6 of 6
[5]
  survivor count: 6 of 6
dose: 120.0 mg/kg/injection, schedule: Q01DX005 (ip), vehicle: saline with Tween-80
  survivor count: 6 of 6

## COc1ccccc1NC(=O)Cc1nc(=O)[nH]c(=O)[nH]1
dose: 50.0 mg/kg/injection, schedule: Q01DX009 (ip), vehicle: Klucel (hydroxypropylcellulose) (HPC)
  survivor count: 4 of 6

## C=C1C(=O)OC2/C=C(\C)C(O)/C=C\C(C)(O)CC(OC(=O)/C(C)=C/C)C12 (stereo not drawn)
dose: 80.0 mg/kg/injection, schedule: Q01DX009 (ip), vehicle: saline
  survivor count: 5 of 6

## Cc1ccn2ccnc2c1
dose: 200.0 mg/kg/injection, schedule: Q01DX009 (ip), vehicle: acetone
  survivor count: 0 of 6

## COc1ccc([P+](CCN2C(=O)c3ccccc3C2=O)(c2ccc(OC)cc2)c2ccc(OC)cc2)cc1
dose: 4.0 mg/kg/injection, schedule: Q01DX009 (ip), vehicle: water
  T/C: 125 % of control
dose: 6.0 mg/kg/injection, schedule: Q01DX009 (ip), vehicle: water
  T/C: 134 % of control
dose: 6.25 mg/kg/injection, schedule: Q01DX009 (ip), vehicle: water
  T/C: 129 % of control
dose: 9.0 mg/kg/injection, schedule: Q01DX009 (ip), vehicle: water
  T/C: 130 % of control [5 of 6 alive]
dose: 25.0 mg/kg/injection, schedule: Q01DX009 (ip), vehicle: water
  survivor count: 2 of 6

## CCC(C)N(C)/N=N/c1nc[nH]c1C(N)=O (stereo not drawn)
dose: 400.0 mg/kg/injection, schedule: Q01DX009 (ip), vehicle: saline with Tween-80
  survivor count: 3 of 6
